{"source": "patent US20050090551A1", "about": "“Therapeutic use of methionine for the treatment or prevention of mucositis” (Board of Trustees of Southern Illinois University, priority 2003, published 2005)", "origin": "cited, not measured here", "key": {"CDDP anti-tumor action": {"system": "CDDP anti-tumor action", "conditions": "literature reports; cited from earlier work"}, "CDDP ototoxicity": {"system": "CDDP ototoxicity", "conditions": "animals; literature reports; cited from earlier work"}}, "note": "For at least one compound, name, drawing or mass did not settle the structure.", "data": [{"compound": "CCN(CC)C(=S)S", "note": "[DDTC, diethyldithiocarbamate]", "values": [{"measurement": "effect on CDDP anti-tumor action", "setting": "CDDP anti-tumor action", "value": "does not interfere with antitumor action"}, {"measurement": "CDDP otoprotection", "setting": "CDDP ototoxicity", "value": "good CDDP otoprotection"}]}]}
